Experimental data: PubChem BioAssay AID1259254 (NCATS, 2017)
Screen: 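Finding genes that stop cells copying their DNA twice in one cycle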 (primary screen). Cells: human HCT116 colorectal cancer cells. Knock-down reagent: single siRNA against human genes. Duration: 3 days. Read-out: 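Nuclei stained with Hoechst and imaged; cell-cycle phase assigned by DNA content; G2 share scaled per plate, non-targeting siRNA 0%, GMNN siRNA 100%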. Scale: G2 robust z-score and G2 cells, % of GMNN control: higher = more G2 cells, more excess DNA replication; raw share of cells in G2: higher = larger share of cells with G2 DNA content. Active means: 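An siRNA counts as active if its G2 robust z-score lies at least 5 MADs above the screen median; here such calls match roughly 38% of GMNN control or more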.
This is an unselected part of about 59,000 deposited reagents. Of all reagents, about 1,550 (2.6%) got an active call. 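G2 share is only a proxy for re-replication; each gene was hit by three separate siRNAs, and active genes were retested.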 The raw values are shown without normalisation. The numbers tell different reagents against one gene apart. Reagent sequences are not shown. Not stated in the record: the amount of reagent.

Target gene | reagent | G2 robust z-score | G2 cells, % of GMNN control | raw share of cells in G2 (%) | outcome
TAC3 | 1 | 0.288 | 4.99 | 5.61 | inactive
TAC3 | 2 | 0.805 | 8.63 | 7.51 | inactive
TAC3 | 3 | -0.469 | -0.329 | 5.57 | inactive
IL27RA | 1 | 8.13 | 60.2 | 27.9 | active
IL27RA | 2 | 3.76 | 29.5 | 16.7 | inactive
IL27RA | 3 | -0.407 | 0.105 | 3.24 | inactive
DGKQ | 1 | 2.41 | 19.9 | 12.2 | inactive
DGKQ | 2 | -0.0245 | 2.79 | 6.35 | inactive
DGKQ | 3 | -0.66 | -1.67 | 3.43 | inactive
WIF1 | 1 | -0.783 | -2.54 | 3.3 | inactive
WIF1 | 2 | -0.676 | -1.79 | 5.65 | inactive
WIF1 | 3 | -0.309 | 0.792 | 4.14 | inactive
FAM226B | 1 | -0.312 | 0.772 | 3.66 | inactive
FAM226B | 2 | 0.123 | 3.83 | 4.59 | inactive
FAM226B | 3 | -0.485 | -0.446 | 2.65 | inactive
FAM226B | 4 | 3.28 | 26.1 | 14.3 | inactive
FAM226B | 5 | -0.891 | -3.3 | 2.1 | inactive
FAM226B | 6 | -0.624 | -1.43 | 2.65 | inactive
CSTPP1 | 1 | 0.544 | 6.79 | 7.54 | inactive
CSTPP1 | 2 | 0.493 | 6.44 | 7.49 | inactive
CSTPP1 | 3 | 7.8 | 57.8 | 18 | active
GALNT17 | 1 | 3.18 | 25.4 | 16.2 | inactive
GALNT17 | 2 | -0.874 | -3.18 | 3.22 | inactive
GALNT17 | 3 | 0.788 | 8.51 | 7.32 | inactive
ADGRL1 | 1 | -0.637 | -1.51 | 5.3 | inactive
ADGRL1 | 2 | 0.343 | 5.38 | 6.4 | inactive
ADGRL1 | 3 | 2.11 | 17.8 | 8.73 | inactive
APOL2 | 1 | 0.965 | 9.75 | 8.08 | inactive
APOL2 | 2 | 3.31 | 26.2 | 15.3 | inactive
APOL2 | 3 | -0.58 | -1.11 | 2.91 | inactive
RTN4IP1 | 1 | -0.551 | -0.907 | 4.45 | inactive
RTN4IP1 | 2 | -0.143 | 1.96 | 4.9 | inactive
RTN4IP1 | 3 | 0.374 | 5.6 | 7.76 | inactive
ZBTB12 | 1 | 0.458 | 6.19 | 5.22 | inactive
ZBTB12 | 2 | 0.193 | 4.33 | 4.67 | inactive
ZBTB12 | 3 | -0.453 | -0.219 | 3.45 | inactive
SMARCA2 | 1 | -0.919 | -3.5 | 4.5 | inactive
SMARCA2 | 2 | 1.41 | 12.9 | 8.96 | inactive
SMARCA2 | 3 | -0.918 | -3.49 | 2.8 | inactive
DTL | 1 | 3.52 | 27.8 | 12.4 | inactive
DTL | 2 | 6.61 | 49.5 | 21.3 | active
DTL | 3 | 1.2 | 11.4 | 9.08 | inactive
KCNJ9 | 1 | 1.47 | 13.3 | 10.1 | inactive
KCNJ9 | 2 | 1.32 | 12.2 | 8.92 | inactive
KCNJ9 | 3 | -0.316 | 0.745 | 4.67 | inactive
STK3 | 1 | -0.493 | -0.498 | 5.44 | inactive
STK3 | 2 | 0.0362 | 3.22 | 6.5 | inactive
STK3 | 3 | 0.208 | 4.43 | 5.59 | inactive
C9 | 1 | 0.246 | 4.7 | 7.51 | inactive
C9 | 2 | 0.635 | 7.44 | 6.81 | inactive
C9 | 3 | 0.137 | 3.93 | 5.06 | inactive
FOLH1 | 1 | -0.995 | -4.03 | 4.15 | inactive
FOLH1 | 2 | 2.84 | 23 | 13 | inactive
FOLH1 | 3 | 2.84 | 23 | 12.5 | inactive
LINC01567 | 1 | 0.512 | 6.57 | 6.2 | inactive
LINC01567 | 2 | -0.742 | -2.26 | 2.62 | inactive
LINC01567 | 3 | 1.81 | 15.7 | 11.3 | inactive
CNST | 1 | 0.147 | 4 | 5.04 | inactive
CNST | 2 | -0.886 | -3.27 | 1.86 | inactive
CNST | 3 | 0.388 | 5.7 | 4.56 | inactive
OR52N5 | 1 | -0.205 | 1.52 | 4.29 | inactive
OR52N5 | 2 | -0.603 | -1.27 | 2.85 | inactive
OR52N5 | 3 | -0.48 | -0.412 | 4.46 | inactive
KRTAP4-12 | 1 | -0.12 | 2.12 | 4.81 | inactive
KRTAP4-12 | 2 | -0.493 | -0.504 | 3.31 | inactive
KRTAP4-12 | 3 | 0.285 | 4.97 | 3.91 | inactive
F9 | 1 | 0.369 | 5.57 | 7.5 | inactive
F9 | 2 | 2.8 | 22.6 | 12.9 | inactive
F9 | 3 | 0.588 | 7.1 | 6.56 | inactive

6 entries from above, sorted by “G2 cells, % of GMNN control”, highest first.
Target gene | reagent | G2 robust z-score | G2 cells, % of GMNN control | raw share of cells in G2 (%) | outcome
ADGRL1 | 3 | 2.11 | 17.8 | 8.73 | inactive
APOL2 | 1 | 0.965 | 9.75 | 8.08 | inactive
GALNT17 | 3 | 0.788 | 8.51 | 7.32 | inactive
ADGRL1 | 2 | 0.343 | 5.38 | 6.4 | inactive
ADGRL1 | 1 | -0.637 | -1.51 | 5.3 | inactive
GALNT17 | 2 | -0.874 | -3.18 | 3.22 | inactive
